For part of these data: The hits were mostly taken out for another list; the other results follow. Records with an inconclusive call do not appear. A structure can be active in one record and inactive in another. For part of these data: The lowest values were mostly taken out for another list; the other results follow. For part of these data: The strong results were mostly taken out for another list; the other results follow. The entries are a selection whose mix differs from that of the whole data set. Calls of active or inactive are those of the source.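 How the source made its calls, unless noted: active means normalized viability below 100% at a tested concentration; inactive means the rest.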
How the values were obtained:
[1] = target: Cellular tumor antigen p53 (Homo sapiens) (UniProt P04637); experiment: GFP-p53 level modulators in HPV16+ cells – imaging, known kinase inhibitor set, EGFP/DsRed ratio (AID 1053116; call rule not given here;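 further: cells exposed to compounds for 24 h at 37 °C before reading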); settings: GFP-p53 stability, stronger effect = higher value; EGFP object count: measured here: GFP-p53 positive objects count
[2] = test system: Aerobactin synthetase IucA (Klebsiella pneumoniae); experiment: inhibition of K. pneumoniae IucA enzyme – biochemical, Tocris library, absorbance (AID 1345561; call rule not given here;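 further: 100% = enzyme without compound and 0% = no enzyme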); settings: purified IucA enzyme assay, absorbance (OD) read-out; stronger effect = lower value;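 tested at 8 µM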
[3] = blockers of cellular phospholipid synthesis – cell-based, LOPAC library, screen 4, primary screen (AID 1347384; call rule not given here); settings: animal cells, phospholipid biosynthesis inhibition screen; at 10 µM
[4] = viability loss in pontine glioma line – cell-based, SU-DIPG-XIII, MIPE4.0, CellTiter-Glo, qHTS, dose response (AID 1347061; cut-off not given, nearly all actives have AC50 up to about 37 µM;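 further: cells exposed to compound for 48 hours before readout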); settings: CellTiter-Glo ATP luminescence
[5] = viability loss in pontine glioma line – cell-based, JHH-DIPG-1, MIPE4.0, CellTiter-Glo, qHTS, dose response (AID 1347062; cut-off not given, nearly all actives have AC50 up to about 27 µM); settings: JHH-DIPG-1 viability, CellTiter-Glo ATP luminescence
[6] = viability loss in pontine glioma line – cell-based, SU-DIPG-IV, MIPE4.0, CellTiter-Glo, qHTS, dose response (AID 1347063; cut-off not given, nearly all actives have AC50 up to about 30 µM;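 further: compound exposure lasted 48 hours before the viability readout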); settings: CellTiter-Glo ATP luminescence
[7] = growth inhibition of DIPG cells – cell-based, MIPE4.0 library, CellTiter-Glo luminescence, qHTS (AID 1347066; cut-off not given, nearly all actives have AC50 up to about 30 µM;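 further: cells exposed to compound for 48 hours before readout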); settings: SU-DIPG-VI viability, CellTiter-Glo ATP luminescence
[8] = drug combination growth inhibition, ovarian cancer – cell-based, oncology-focused library, rucaparib conditional, profiling panel (AID 1508598); settings: patient-derived ovarian cancer cells, CellTiter-Glo viability, 144 h, stronger effect = lower value
[9] = test system: Hepatitis C virus NS3 helicase; experiment: blockers of NS3h binding to ssDNA – biochemical, fluorescence polarization, LOPAC1280 library, primary screen (AID 687035; in the data active means inhibition above about 37%); settings: Purified HCV NS3 helicase, Cy5-dT15 ssDNA binding fluorescence polarization; stronger effect = higher value; concentration not given here
[10] = compounds altering Cy5-DNA-NS3h complex signal – biochemical, LOPAC1280, artefact control for HCV NS3 helicase inhibitor project (AID 687037; call rule not given here); settings: Cy5-DNA-NS3h complex fluorescence interference counterscreen
[11] = viability loss in pontine glioma line – cell-based, SU-DIPG-XIII, MIPE5.0, CellTiter-Glo, qHTS, dose response (AID 1347064; cut-off not given, nearly all actives have AC50 up to about 23 µM;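 further: cells exposed to compound for 48 hours before the viability read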); settings: CellTiter-Glo ATP luminescence
[12] = viability loss in pontine glioma line – cell-based, SU-DIPG-XXV, MIPE5.0, CellTiter-Glo, qHTS, dose response (AID 1347065; cut-off not given, nearly all actives have AC50 up to about 26 µM;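 further: cells exposed to compound for 48 hours before ATP readout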); settings: CellTiter-Glo ATP luminescence
[13] = JHH-DIPG-1 glioma cell viability, MIPE5.0 library, CellTiter-Glo luminescence, qHTS (AID 1347067; cut-off not given, nearly all actives have AC50 up to about 26 µM;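 further: cells exposed to compound for 48 hours before readout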); settings: JHH-DIPG-1 glioma viability, CellTiter-Glo ATP luminescence
[14] = blockers of polyQ-driven CASP3 activation – cell-based (AID 1583); settings: polyglutamine-induced caspase-3 activation, cell assay; stronger effect = higher value;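 tested at 10 µM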
[15] = blockers of cytochrome c efflux from mitochondria – biochemical, purified mitochondria (AID 1603); settings: stronger effect = lower value;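 further: mouse liver mitochondria challenged with calcium chloride; signal normalized to the plate average as 100%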
[16] = polyglutamine aggregate formation blockers (AID 1604); settings: polyglutamine-induced protein aggregation inhibition assay; stronger effect = higher value; tested at 2.5 µM

Chains of the proteins cited; added tags and fusions are not shown.
UniProt P04637, whole entry, looked up: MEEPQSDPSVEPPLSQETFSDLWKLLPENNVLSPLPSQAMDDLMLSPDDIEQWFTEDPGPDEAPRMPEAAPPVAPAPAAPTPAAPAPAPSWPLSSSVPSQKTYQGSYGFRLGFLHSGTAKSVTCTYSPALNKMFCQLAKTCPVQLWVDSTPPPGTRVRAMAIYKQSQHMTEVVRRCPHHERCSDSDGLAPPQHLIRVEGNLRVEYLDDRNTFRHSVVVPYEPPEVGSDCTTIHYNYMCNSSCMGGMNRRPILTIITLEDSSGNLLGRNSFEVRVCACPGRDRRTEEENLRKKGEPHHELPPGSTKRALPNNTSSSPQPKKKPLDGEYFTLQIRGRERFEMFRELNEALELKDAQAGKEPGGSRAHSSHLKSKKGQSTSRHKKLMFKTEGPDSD

CS(=O)(=O)c1ccc(Oc2nccc(-c3c(-c4ccc(F)cc4)ncn3C3CCNCC3)n2)cc1
EGFP object count [1]: 4.5
EGFP/DsRed ratio [1]: inactive: 0.0478

O=C1NC(=O)c2c1c(-c1ccccc1)cc1[nH]c3ccc(O)cc3c21
remaining activity [2]: inactive: 125%
outcome [3]: inactive

O=C1NC(=O)C(c2ccccc2)=C1Nc1ccccc1
EGFP object count [1]: 4
EGFP/DsRed ratio [1]: inactive: 0.0591

COC(=O)[C@H](CCCN=C(N)N)NS(=O)(=O)c1ccc(C)cc1
outcome [4]: inactive
outcome [5]: inactive
outcome [6]: inactive
outcome [7]: inactive
viability ([8]; at 0.000305 µM, OCI-C5x cells, with rucaparib 10 µM, 100% = cells with rucaparib alone): inactive: 106%
viability ([8]; at 0.000305 µM, OCI-C5x cells, without rucaparib): inactive: 139%
viability ([8]; at 0.000305 µM, OCI-P5x cells, with rucaparib 20 µM, 100% = cells with rucaparib alone): inactive: 102%
viability ([8]; at 0.000305 µM, OCI-P5x cells, without rucaparib): inactive: 115%
viability ([8]; at 0.00122 µM, OCI-C5x cells, with rucaparib 10 µM, 100% = cells with rucaparib alone): inactive: 113%
viability ([8]; at 0.00122 µM, OCI-C5x cells, without rucaparib): inactive: 128%
viability ([8]; at 0.00122 µM, OCI-P5x cells, with rucaparib 20 µM, 100% = cells with rucaparib alone): inactive: 100%
viability ([8]; at 0.00122 µM, OCI-P5x cells, without rucaparib): inactive: 109%
viability ([8]; at 0.00488 µM, OCI-C5x cells, with rucaparib 10 µM, 100% = cells with rucaparib alone): inactive: 112%
viability ([8]; at 0.00488 µM, OCI-C5x cells, without rucaparib): inactive: 129%
viability ([8]; at 0.00488 µM, OCI-P5x cells, with rucaparib 20 µM, 100% = cells with rucaparib alone): active: 79.2%
viability ([8]; at 0.00488 µM, OCI-P5x cells, without rucaparib): active: 96.7%
viability ([8]; at 0.0195 µM, OCI-C5x cells, with rucaparib 10 µM, 100% = cells with rucaparib alone): inactive: 115%
viability ([8]; at 0.0195 µM, OCI-C5x cells, without rucaparib): inactive: 140%
viability ([8]; at 0.0195 µM, OCI-P5x cells, with rucaparib 20 µM, 100% = cells with rucaparib alone): active: 99.8%
viability ([8]; at 0.0195 µM, OCI-P5x cells, without rucaparib): inactive: 117%
viability ([8]; at 0.0781 µM, OCI-C5x cells, with rucaparib 10 µM, 100% = cells with rucaparib alone): inactive: 114%
viability ([8]; at 0.0781 µM, OCI-C5x cells, without rucaparib): inactive: 141%
viability ([8]; at 0.0781 µM, OCI-P5x cells, with rucaparib 20 µM, 100% = cells with rucaparib alone): inactive: 104%
viability ([8]; at 0.0781 µM, OCI-P5x cells, without rucaparib): inactive: 114%
viability ([8]; at 0.313 µM, OCI-C5x cells, with rucaparib 10 µM, 100% = cells with rucaparib alone): inactive: 110%
viability ([8]; at 0.313 µM, OCI-C5x cells, without rucaparib): inactive: 129%
viability ([8]; at 0.313 µM, OCI-P5x cells, with rucaparib 20 µM, 100% = cells with rucaparib alone): inactive: 106%
viability ([8]; at 0.313 µM, OCI-P5x cells, without rucaparib): inactive: 117%
viability ([8]; at 1.25 µM, OCI-C5x cells, with rucaparib 10 µM, 100% = cells with rucaparib alone): inactive: 120%
viability ([8]; at 1.25 µM, OCI-C5x cells, without rucaparib): inactive: 136%
viability ([8]; at 1.25 µM, OCI-P5x cells, with rucaparib 20 µM, 100% = cells with rucaparib alone): inactive: 106%
viability ([8]; at 1.25 µM, OCI-P5x cells, without rucaparib): inactive: 122%
viability ([8]; at 5 µM, OCI-C5x cells, with rucaparib 10 µM, 100% = cells with rucaparib alone): inactive: 103%
viability ([8]; at 5 µM, OCI-C5x cells, without rucaparib): inactive: 136%
viability ([8]; at 5 µM, OCI-P5x cells, with rucaparib 20 µM, 100% = cells with rucaparib alone): active: 98%
viability ([8]; at 5 µM, OCI-P5x cells, without rucaparib): inactive: 120%

COc1ccccc1Oc1nccc(-c2c(-c3ccc(F)cc3)ncn2C2CCNCC2)n1
EGFP object count [1]: 5
EGFP/DsRed ratio [1]: inactive: 0.16

O=C1NC(=O)C(c2cccc([N+](=O)[O-])c2)=C1Nc1cc(Cl)c(O)c(Cl)c1
EGFP object count [1]: 0
EGFP/DsRed ratio [1]: inactive: 0

CN1C2CCC1CC(OC(=O)C(O)c1ccccc1)C2 (stereo not drawn)
inhibition [9]: inactive: -3%
fluorescence ratio (interference) [10]: inactive: 1

Cc1ccccc1-n1c(Cn2nc(-c3cccc(O)c3)c3c(N)ncnc32)nc2cccc(C)c2c1=O
outcome [4]: inactive

CC(C)(C)c1ccc(Oc2nccc(-c3c(-c4ccc(F)cc4)ncn3C3CCNCC3)n2)cc1
EGFP object count [1]: 8.5
EGFP/DsRed ratio [1]: inactive: 0.206

O=C1NC(=O)C(c2ccccc2Cl)=C1Nc1cc(Cl)c(O)c(Cl)c1
EGFP object count [1]: 4
EGFP/DsRed ratio [1]: inactive: 0.333

COc1ccccc1C1=C(Nc2ccccc2)C(=O)NC1=O
EGFP object count [1]: 1
EGFP/DsRed ratio [1]: inactive: 0.0172

COc1cc(N2CCN(C(C)=O)CC2)ccc1Nc1ncc(Cl)c(Nc2ccc(N3CCN(C(C)=O)CC3)cc2OC)n1
AC50 [11]: active: 3.32 µM
AC50 [12]: active: 1.66 µM
AC50 [13]: active: 5.9 µM

Fc1ccc(-c2ncn(C3CCNCC3)c2-c2ccnc(Oc3ccc(Cl)cc3)n2)cc1
EGFP object count [1]: 6
EGFP/DsRed ratio [1]: inactive: 0.272

CN1C2CC[C@H]1CC(OC(=O)C(O)c1ccccc1)C2 (stereo partly drawn)
inhibition [14]: 0.52%
cytochrome c release ratio [15]: 1.14
inhibition of aggregation [16]: -2.44%
